# From article doi:10.1101/2020.07.20.211441
# T1: XPA-binding protein (XAB)-2, biotin-tagged knock-in (mouse) (UniProt Q9DCD2)
# T1 sequence (chain, biotin on the Avitag (by the BirA ligase in vivo)): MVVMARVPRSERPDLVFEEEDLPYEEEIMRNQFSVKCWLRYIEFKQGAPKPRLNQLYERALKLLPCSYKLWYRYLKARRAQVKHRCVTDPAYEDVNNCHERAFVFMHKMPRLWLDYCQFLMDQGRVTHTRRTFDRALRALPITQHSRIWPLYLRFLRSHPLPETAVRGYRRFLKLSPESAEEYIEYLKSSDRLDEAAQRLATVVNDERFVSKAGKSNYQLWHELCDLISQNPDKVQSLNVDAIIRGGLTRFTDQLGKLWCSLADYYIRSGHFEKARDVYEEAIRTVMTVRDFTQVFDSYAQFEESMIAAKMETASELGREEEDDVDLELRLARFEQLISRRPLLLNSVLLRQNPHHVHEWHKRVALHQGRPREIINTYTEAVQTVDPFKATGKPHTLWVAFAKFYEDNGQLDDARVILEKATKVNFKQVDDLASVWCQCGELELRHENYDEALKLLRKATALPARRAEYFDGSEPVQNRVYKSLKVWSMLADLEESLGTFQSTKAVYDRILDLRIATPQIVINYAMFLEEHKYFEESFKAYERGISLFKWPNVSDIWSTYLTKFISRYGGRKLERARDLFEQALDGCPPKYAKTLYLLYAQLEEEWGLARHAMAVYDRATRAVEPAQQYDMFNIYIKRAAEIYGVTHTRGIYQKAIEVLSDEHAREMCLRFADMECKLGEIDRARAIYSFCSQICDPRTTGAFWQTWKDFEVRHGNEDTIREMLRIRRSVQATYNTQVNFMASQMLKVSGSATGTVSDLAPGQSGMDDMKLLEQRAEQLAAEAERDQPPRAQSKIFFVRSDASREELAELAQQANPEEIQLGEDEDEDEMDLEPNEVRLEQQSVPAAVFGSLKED
# B1: WDR75 (protein, UniProt Q3U821 1-830)
# chain: MVEEGVRVVRCGGSRLNFRRAVFSVDSKYIFCVSGDFVKVYSTTTEECVHILHGHTDLVSGILVNPSNHLQLYSCSFDGTIKLWDYVDGILIKTFTIGPKLHAFFIPLHAEDSVFLTISKEEPDIFQLVSVKLPKSTSQDVEARQLTFVLDYINRSPKCIAFGNEGEYVAAVRDFYLSVYFFKKKKTCNFTLPSTKNKKNAKNKFTCVACHPKEDCIASGHMDGKIRLWRNFHSDQKYTYTCLHWHHDMVMDLAFTVTGTSLLSGGRECVLVEWRDGSEKNKEFLPRLGSSIEHISVSPAGDLFCTSHSDNKITVIHRNLDASAVIQGLVKDRSISTGLMVDPRTKALVLNGKPGHLQFYSLQGDKQLYNLDIIQQEYINDEGLTQTELTKAAFGCSGTWLATVEQRQENENELELQMKLWNYSKKTQGFVLNTKIAMPHDDHITALCFNNAESYEKPILVTASRDGHFKVWILTDDSDIYKKAIAWTCDFVGSYHKYQATNCCFSEDGSLLAVSFEEIVTIWDSQTWELKCTFCQRAGKIRHLCFGRLTCSKYLLGTTDNGILCCWNLLSCSIQWSAKLNVRVMEPDPYSDHVAAVAQSSAGSDLFVFKPSEPRPLYIQKNVSREEVQWGVFVPRDVPESFTSETHQWLNRSQFYFLTKSQSLLTFSTKSPEEKLTPTSKQLLAEESLPTTPFSFILGKHRQQQGAKLTETSENELVQLPLTENIPAITELLHTPAHVLPSASFLCSLFVNSLLLSKETKSAEEVPDDVDMEGNKESDDSDEEYDLTEKDKETNNNTDLGEDAIHQLSKSEEKELRKFRKVDYSWLTAL
# B2: XRN2 (protein, UniProt Q9DBR1 1-951)
# chain: MGVPAFFRWLSRKYPSIIVNCVEEKPKECNGVKIPVDASKPNPNDVEFDNLYLDMNGIIHPCTHPEDKPAPKNEDEMMVAIFEYIDRLFNIVRPRRLLYMAIDGVAPRAKMNQQRSRRFRASKEGMEAAVEKQRVREEILAKGGFLPPEEIKERFDSNCITPGTEFMDNLAKCLRYYIADRLNNDPGWKNLTVILSDASAPGEGEHKIMDYIRRQRAQPNHDPNTHHCLCGADADLIMLGLATHEPNFTIIREEFKPNKPKPCALCNQFGHEVKDCEGLPREKKGKHDELADSLPCAEGEFIFLRLNVLREYLERELTMASLPFPFDVERSIDDWVFMCFFVGNDFLPHLPSLEIREGAIDRLVNIYKNVVHKTGGYLTESGYVNLQRVQMIMLAVGEVEDSIFKKRKDDEDSFRRRQKEKRKRMKRDQPAFTPSGILTPHALGSRNSPGCQVASNPRQAAYEMRMQRNSSPSISPNTSFASDGSPSPLGGIKRKAEDSDSEPEPEDNVRLWEAGWKQRYYKNKFDVDAADEKFRRKVVQSYVEGLCWVLRYYYQGCASWKWYYPFHYAPFASDFEGIADMSSEFEKGTKPFKPLEQLMGVFPAASGNFLPPTWRKLMSDPDSSIIDFYPEDFAIDLNGKKYAWQGVALLPFVDERRLRAALEEVYPDLTPEENRRNSLGGDVLFVGKLHPLRDFILELYQTGSTEPVDVPPELCHGIQGTFSLDEEAILPDQTVCSPVPMLRDLTQNTAVSINFKDPQFAEDYVFKAAMLPGARKPATVLKPGDWEKSSNGRQWKPQLGFNRDRRPVHLDQAAFRTLGHVTPRGSGTSVYTNTALPPANYQGNNYRPLLRGQAQIPKLMSNMRPQDSWRGPPPLFQQHRFERSVGAEPLLPWNRMIQNQNAAFQPNQYQMLGGPGGYPPRRDDHRGGRQGYPREGRKYPLPPPSGRYSWN
# B3: Aquarius (protein, UniProt Q8CFQ3 1-1481)
# chain: MAAPAQPKKIVAPTVSQINAEFVTQLACKYWAPHIKKKSPFDIKVIEEIYEKEIVKSRFAIRKIMLLEFSQYLENYLWMNYSPEVSSKAYLMSICCMVNEKFRENVPAWETFKKKPDHFPFFFKCILKAALAETDGEFSLHEQTLLLLFLDHCFNSLEVDLIRSQVQQLISLPMWMGLQPARLELELKKTPKLRKFWNLIKKNDEKMDPEAREQAYQERRFLSRLIQKFISVLKSIPLSEPVTMDKVHYCERFIELMIDLEALLPTRRWFNTILDDSHLLVHCYLSSLVHREEDGHLFSQLLDMLKFYTGFEINDQTGNALTENEMTTIHYDRITSLQRAAFAHFPELYDFALSNVAEVDARDSLVKFFGPLSSNTLHQVASYLCLLPTLPKNEDTTFDKEFLLELLVSRHERRISQIQQLNQMPLYPTEKIIWDENIVPTEYYSGEGCLALPKLNLQFLTLHDYLLRNFNLFRLESTYEIRQDIEDSVSRMKPWQSEYGGVVFGGWARMAQPIVAFTVVEVAKPNIGENWPTRVRADVTINLNVRDHIKDEWEGLRKHDVCFLITVRPTKPYGTKFDRRRPFIEQVGLVYVRGCEIQGMLDDKGRVIEDGPEPRPNLRGESRTFRVFLDPNQYQQDMTNTIQNGAEDVYDTFNVIMRRKPKENNFKAVLETIRNLMNTDCVVPDWLHDIILGYGDPSSAHYSKMPNQIATLDFNDTFLSIEHLKASFPGHNVKVTVSDPALQIPPFRITFPVRSGKGKKRKDADGEEDDTEEAKTLIVEPHVIPNRGPYPYNQPKRNTIQFTHTQIEAIRAGMQPGLTMVVGPPGTGKTDVAVQIISNIYHNFPEQRTLIVTHSNQALNQLFEKIMALDIDERHLLRLGHGEEELETEKDFSRYGRVNYVLARRIELLEEVKRLQKSLGVPGDASYTCETAGYFFLYQVMSRWEEYMSRVKNSGTACPDAAPDAAQVATFFPFHEYFANAPQPIFKGRSYEEDMEIAEGCFRHIKKIFTQLEEFRASELLRSGLDRSKYLLVKEAKIIAMTCTHAALKRHDLVKLGFKYDNILMEEAAQILEIETFIPLLLQNPQDGFSRLKRWIMIGDHHQLPPVIKNMAFQKYSNMEQSLFTRFVRVGVPTVDLDAQGRARASLCNLYNWRYKNLGNLPHVQLLPEFSTANAGLLYDFQLINVEDFQGVGESEPNPYFYQNLGEAEYVVALFMYMCLLGYPADKISILTTYNGQKHLIRDIINRRCGNNPLIGRPNKVTTVDRFQGQQNDYILLSLVRTRAVGHLRDVRRLVVAMSRARLGLYIFARVSLFQNCFELTPAFSQLTARPLHLHIIPTEPFPTSRKNGERPPHEVQVIKNMPQMANFVYNMYMHLIQTTHHYHQTFLQLPPAMVEEGEEGQSQETEMEAEEETVSAQGNLTPSPADASLSQETPAAQPDCSSQTEDTSAPCDIATAAEPVSAAAEAATPQDAESVPTETE
# B4: NUP107 (protein, UniProt Q8BH74 1-926)
# chain: MDRSGFGGMSSPVIRDAEVTRTARKHSAHKRVLIQANQEDNFGTATPRSQIIPRTPSSFRQPFVTPSSRSLLRHPDISYILGTEGRSPRHTQSSGYLGNLSMVTNLDDSNWAAAFSSQRLGLYTNTEHHSMTEDVNLSTVMLREDDPGEAASMSMFSDFLHSFLKHSSTTVFDLVEEYENICGSQVNILSKIVSRATPGLQKFSKTASMLWLLQQEMVTWRLLASLYRDRIQSSLEEENMFAIAGINASEKMVVETLFQRDSLVRQSQLVVDWLESIAKDEIGEFSDNIEFYAKSVYWENTLHSLKQRQLLSHMGSTRPLVTELDPDAPIRQKLPLDDLDREDEVRLLKYLFTLIRAGMTEEAQRLCKRCGQAWRAATLEGWKLYHDPNVNGGTELEPVEGNPYRRIWKISCWRMAEDELFNKYERAIYAALSGNLKQLLPVCDTWEDTVWAYFRVMVDSLVEQEIRTSVMTQDDSEELPREYMEANWTLEKVFEELQATDKKRVLEENQEHYHIVQKFLILGDVDGLMDEFSKWLSKSGSSLPGHLLRFMTHLILFLRTLGLQTKEEVSIEVLKTYIQLLISEKHTSLIAFYTCHLPQDLAVAQYALFLEGVTEFEQRHQCLELAKEADLDVATITKTVVENICKKDNGEFSHHDLAPSLDTGTTEEDRLKIDVIDWLVFDPAQRAEALRQGNAIMRKFLALKKHEAAKEVFVKIPQDSIAEIYNQWEEQGMESPLPAEDDNAIREHLCIRAYLEAHETFNEWFKHMNSAPQKPTLLSQATFTEKVAYEHREKKYEMDHNIWKGHLDALTADVKEKMYNVLLFVDGGWMVDVREDAEDDPERTHQMVLLRKLCLPMLCFLLHTILHSTGQYQECLQLADMVSSERHKLYLVFSKEELRKLLQKLRESSLMLLDQGLDPLGYEIQS
# B5: SNRP40 (protein, UniProt Q6PE01 1-358)
# chain: MIEQQKRKGPELPLVPVKRPRHELLLGAAGAGPGAGPQQATPGALLQAGPPRCSSLQAPIMLLSGHEGEVYCCKFHPNGSTLASAGFDRLILLWNVYGDCDNYATLKGHSGAVMELHYNTDGSMLFSASTDKTVAVWDSETGERVKRLKGHTSFVNSCYPARRGPQLVCTGSDDGTVKLWDIRKKAAVQTFQNTYQVLAVTFNDTSDQIISGGIDNDIKVWDLRQNKLTYTMRGHADSVTGLSLSSEGSYLLSNAMDNTVRVWDVRPFAPKERCVKIFQGNVHNFEKNLLRCSWSPDGSKIAAGSADRFVYVWDTTSRRVLYKLPGHAGSINEVAFHPDEPIILSASSDKRLYMGEIQ
# B6: BCAS2 (protein, UniProt Q9D287 1-225)
# chain: MAGTGLVAGEVVVDALPYFDQGYEAPGVREAAAALVEEETRRYRPTKNYLSYLTAPDYSAFETDIMRNEFERLAARQPIELLSMKRYELPAPSSGQKNDITAWQECVNNSMAQLEHQAVRIENLELMSQHGCNAWKVYNENLVHMIEHAQKELQKLRKHIQDLNWQRKNMQLTAGSKLREMESNWVSLVSKNYEIERTIVQLENEIYQIKQQHGEANKENIRQDF
# Target: T1, XPA-binding protein (XAB)-2, biotin-tagged knock-in (mouse)
# Experiment: affinity purification with mass spectrometry
row,binding,Binder
1,binds,B1
2,binds,B2
3,binds,B3
4,binds,B4
5,binds,B5
6,binds,B6

# Results are given in words; binding and its absence hold for the method and conditions named. Binding seen in cells or lysates may run through a third protein. A yes stands for co-enrichment or nearness to the bait. Other partners may have been found. Where a sequence is shown, tags or fusion partners need not be part of it.
